Assay results from ChEMBL document CHEMBL2216752, “Carnitine palmitoyltransferase (CPT) modulators: a medicinal chemistry perspective on 35 years of research” (J Med Chem, 2011).

Experiments:
[1] = Inhibition of rat FAO
[2] = Inhibition of human FAO

IC50 [1]: > 100 µM
IC50 [2]: 28.5 µM
SMILES: CCCCc1oc2ccccc2c1C(=O)c1cc(I)c(OCCN(CC)CC)c(I)c1 [AMIODARONE]
